# Results from the DeepSol protein solubility set.
# Assay: soluble on expression in E. coli; label from the status in PepcDB or PDB records
row,Sequence,soluble on expression in E. coli
1,MYQDDHIGSEHSSATTNISHLCGLRISERPQKTRKTGVICTIGPACSDVETLRKMINTGMNIARLNFSHGTHEAHAATIKTIREAAENAPFPVAIALDTKGPEIRTGMFANNMKEVQLENGKSVRVSTDPSMEFAATSSHIYADYRNLPKVVQPGSRIYIDDGLISLIVESCEETAVICTIENGGALGTRKGVNLPGTIVDLPAVTSKDIEDLLFGVEQGVDIIFASFIRNADGIHKIRQVLGEKGKHIYIIAKIESEDGVTNCDEIIEASDGVMVARGDLGIEIPAEKVFLAQKMLIAKCNLAGKPVICATQMLESMITKPRPTRAECSDVANAVLDGVDCVMLSGETAKGDYPVEALAIMHNICKEAESAFFHMKHFEELILHTKKPTGMTHTTAIAAVSATITCRAVAIILITTTGKTARLCSRYRPPVPIITVSRDERISRQLHLHRGIFPVYYPKGRIDEWDVDVEERVQYGVNLGKTRGFIHLGDPLIVITGWKQGAGFTNTMRIVVAT,not soluble
2,MTKVHYSRAPENSTKSCKARGSDLRVHFKNTHEAAMALRGMPLRRAQAFLNHVKEHKEIVPFRRFLDLLKNAESNAEYKGLDVDHLVIEHINVQRAAKLRRRTYRAHGRINPYMSSPCHIEVILAEKEDVVSKPTDDAAPKVKKESKRKQRRQLARGEF,soluble
3,TEFKAGSAKKGATLFKTRCLQCHTVEKGGPHKVGPNLHGIFGRHSGQAEGYSYTDANIKKNVLWDENNMSEYLTNPKKYIPGTKMAIGGLKKEKDRNDLITYLKKACE,soluble
4,MTRSSLFEELAEIAKERIMIIDGAMGTMIQREYMEEEDFRGEILKDHDKPLKGNNDLLSITRPDIIYKIHKLYLEAGADFVETNTFSGTTIAQADYRCEHLVHEINYQSALVARRACDDVGAATGRRRYVCGAIGPTNRTLSISPSVEKPDFRNVTFQELVKAYGDQARSLIQGGVDVLLVETVFDSANAKAALFAIRTLFEDEGVPEMPVFLSGTIVDMSGRTLSGQTGEAFLVSTKQGKPMAVGLNCALGAKDMRQFVDNMSKWSDSFIICYPNAGLPNALGGYDETPEEMADVLREFARDGLVNIIGGCCGTTPDHINAMYKAVQGITPRVPPQDPHAGKMLLSGLEPSIVGPETNFVNIGERCNVAGSRRFCNLIKNENYDTAIDVARVQVDSGAQILDVNMDDGLLDGPYAMSKFLRLISSEPDVAKIPVCIDSSDFDVIIAGLESTQGKCVVNSISLKEGEEKFKERARIIKRYGAAVVVMAFDEQGQAAETDPKFEICERSYRILTEEVGFNPNDIIFDANILTIATGMEEHSNYGMYFIEAARMIRENLPGAHVSGGVSNISFSFRGMEAIREAMHSVFLFYAIKAGMDMGIVNAGALPVYEDIDKPLLQLLEDLLFNRDPEATEKLLVAAQEMKKDGKKADTKTDEWRSLTVEERLKFALVKGVDQFVVADTEEARQNTAKYPRPLNVIERPLMDGMAVVGELFGAGKMFLPQVIKSARVMKKAVAHLLPFMEIERQANIETMGLAEDESPYQGTVVIATVKGDVHDIGKNIVSVVLGCNNFKVVDLGVMTPCENIIKAAIEEKADFIGLSGLITPSLDEMVYVAKEMNRVGLNIPLLIGGATTSKTHTAVKISPRYPHPVVHCLDASKSVVVCSSLSDMSVRDAFLQDLNEDYEDVRQEHYASLKDRRFTDLNKTREKKFKIDWDKFTAVKPSFVGRREYQNFDLNELIPYIDWKPFFDVWQLRGKYPNRSYPKIFDDADVGAEAKKVFDDAQTWLKKLIDEKILVANAVVSFLPAASEGDDMHVYDPETGNKLDTFYGLRQQSGREHDQPHFCLSDFIKPLKNGVPDDYLGLFACTAGLGAEEYCKTLEKNHDDYASIMVKALADRLAEAYAEYLHKEVRTTLWGYSTNEDLTESDLLSIKYQGIRPACGYPSQPDHTEKRTLWKLLEAEKNGIGLTEHLAMLPAASVSGLYFANPQSEYFAVGKIDQDQVIDYAARKNVPKEEVERWLSPILGYDTD,not soluble
5,MGDSGKLEATIDRLLNEEKQMRLAENVAGTRKAATEILQLCFDAKDWKLLNEQILNLSKKRGQLKQAVQSMVQQAMQYIDQTPDIETRIELIKTLNNVSAGKIYVEIERARLTKKLAKIKEEQGQIAEAADLMQEVAVETFGAMAKTEKIAFILEQVRLCLDRQDFVRAQILSRKINPRVFDADTKKDKKKPKEGDNMVEEAPADIPTLLELKRIYYELMIRYYSHNNEYIEICRSYKAIYDIPSVKETPEQWIPVLRKICWFLVLAPHDPMQSSLLNATLEDKNLSEIPDFKMLLKQVVTMEVIQWTSLWNKYKDEFEKEKSMIGGSLGDKAGEDLKLRIIEHNILVVSKYYARITLKRLAELLCLSMEEAEKHLSEMVVSKALIAKIDRPSGIVCFQIAKDSNEILNSWAGNLEKLLDLVEKSCHQIHKETMVHKAALRP,not soluble
6,MERVNLGGLGYDNGGVMMTRDPKPRLRWTADLHDRFVDAVAKLGGADKATPKSVLKLMGLKGLTLYHLKSHLQKYRLGQQQGKKQNRTEQNKENAGSSYVHFDNCSQGGISNDSRFDNHQRYIIYEFAFSRHNGFVKLEFDIMLMNTRRQSGNVPFAEAMRHQVDAQQRFQEQLEVQKKLQMRMEAQGKYLLTLLEKAQKSLPCGNAGETDKGQFSDFNLALSGLVGSDRKNEKAGLVTDISHLNGGDSSQEFRLCGEQEKIETGDACVKPESGFVHFDLNSKSGYDLLNCGKYGIEVKPNVIGDRLQ,soluble
7,MSSLMAIRCARTQNIVTIGSLLQLRSSFPRLSSQFHFSGTLNSIPIKHLSTSAAANDYHQNPQSGSPSQHQRPYPPQSFDSQNQTNTNQRVPQSPNQWSTQHGGQIPQYGGQNPQHGGQRPPYGGQNPQQGGQMSQYGGHNPQHGGHRPQYGGQRPQYGGPGNNYQNQNVQQSNQSQYYTPQQQQQPQPPRSSNQSPNQMNEVAPPPSVEEVMRLCQRRLYKDAIELLDKGAMPDRECFVLLFESCANLKSLEHSKKVHDHFLQSKFRGDPKLNNMVISMFGECSSITDAKRVFDHMVDKDMDSWHLMMCAYSDNGMGDDALHLFEEMTKHGLKPNEETFLTVFLACATVGGIEEAFLHFDSMKNEHGISPKTEHYLGVLGVLGKCGHLVEAEQYIRDLPFEPTADFWEAMRNYARLHGDIDLEDYMEELMVDVDPSKAVINKIPTPPPKSFKETNMVTSKSRILEFRNLTFYKDEAKEMAAKKGVVYVPDTRFVLHDIDQEAKEQALLYHSERLAIAYGIICTPPRKTLTIIKNLRVCGDCHNFIKIMSKIIGRVLIVRDNKRFHHFKDGKCSCGDYW,not soluble
8,MKKIVLLSLFALCLPLLVMAQSNNDDLYFVPSKEKKQEAKKTPVKKEPEKKVVTTNIYTSPGTTVVVQDRKGNKRDMRDVDEYNRRYDAKDNEFAMEDDTLYVKEKAVSDPDGEWVNGFNGSQDDYEYAERIIRFRNPRFAVSISSPLYWDIVYGTNSWDWNVYTDGFYAYAFPTFTNRLWWDWRYNSYGSGWGWGWGWSSPYYAWGGYYPGYWGGYWGGYWGGWYGGGYWGHHHHYHPGWGGGGSWAGRYNTYTRRGSSAVRSSYGNSSTVRRYSSGAVRSNSGSSVRSSATSSYNRGESSARRVIGTRVVGERPGSTTRTDASSSRRSTYTRPSSTRSSSSYEGTRGGSTTTGSPSYSEGGRRASTRSSSTYTRGSSTAPSRSYNESTTRRSYNSTPSRSSSSSTRSYSSPSGSSSRSYSTGGGGGSSRSSGGGGGSSRGRR,not soluble
9,LAPGRLLYKGERGGPFHKILAPSHKREAVAHLQSLFEVSQRRACDALGVDRTTVRYQSRRPDDAEARERIRVLAGERRRFGYRRLHWLLSREGISMNHKKFRRLYREERLQVRRRGGRKRALGTRSPMTIPQGCNQRWSLDFVSDALTCGRRFRIFAVVDDFSRECVRLIADTSISGARLARELDMAITERGARPLMVVSDDGTELTSMSILRWSKERNVEWHYIAPGKPQQNGFVESFNARLRDECLNETLFTSLPQARSVLAAWRHDYNPVS,soluble
10,MTTSTSPSSTDAPRATAPESSSSSSSSSSSSSSTSSVGASGIPSSSELSSTIGYDPMTASAALSAHFGSYYDPTSSSQIASYFASSQGLGGPQYPILGDQSLCYNPSVTSTHHDWKHLEGDDDDDKDDDKKGISGDDDDMDKNSGGAVYPWMTRVHSTTGGSRGEKRQRTAYTRNQVLELEKEFHTHKYLTRKRRIEVAHSLMLTERQVKIWFQNRRMKHKKENKDKPMTPPMMPFGANLPFGPFRFPLFNQF,not soluble
11,MGHHHHHHENLYFQSHLYFQSHMTDFVELMNSMSSTFNSDCATSTAEGGTLLNLNLAEDKTLKWRNLANNQFASKEKKHKDKEEEERKEARNQEEIEDIKALLADVVDAAAVKLEEEEAQNAEKVEPHTKCEIEEEGRKEMEYDQDVAKQDSEMEKKQNGKATSITVKMES,soluble
12,GEKILYSWGELLGKWHSNLGARPKGLSTLVKSGVPEALRAEVWQLLAGCHDNQAMLDRYRILITKDSAQESVITRDIHRTFPAHDYFKDTGGDGQESLYKICKAYSVYDEDIGYCQGQSFLAAVLLLHMPEEQAFCVLVKIMYDYGLRDLYRNNFEDLHCKFYQLERLMQEQLPDLHSHFSDLNLEAHMYASQWFLTLFTAKFPLCMVFHIIDLLLCEGLNIIFHVALALLKTSKEDLLQADFEGALKFFRVQLPKRYRAEENARRLMEQACNIKVPTKKLKKYEKEYQTMRESQLQQEDPMDRYKFVYL,soluble
13,MESSGSQGGRAPSYDQPDYGQQDSYDQQSGYDQHQGSYDEQSNYDQQHDSYSQNQQSYHSQRENYSHHTQDDRRDVSRYGEDNRGYGGSQGGGRGRGGYDKDGRGPMTGSSGGDRGGFKNFGGHRDYGPRTDADSESDNSDNNTIFVQGLGEGVSTDQVGEFFKQIGIIKTNKKTGKPMINLYTDKDTGKPKGEATVSFDDPPSAKAAIDWFDGKEFHGNIIKVSFATRRPEFMRGGGSGGGRRGRGGYRGRGGFQGRGGDPKSGDWVCPNPSCGNMNFARRNSCNQCNEPRPEDSRPSGGDFRGRGYGGERGYRGRGGRGGDRGGYGGDRSGGGYGGDRSSGGGYSGDRSGGGYGGDRSGGGYGGDRGGGYGGDRGGGYGGDRGGGYGGDRGGYGGDRGGGYGGDRGGYGGDRGGYGGDRGGYGGDRGGYGGDRSRGGYGGDRGGGSGYGGDRSGGYGGDRSGGGYGGDRGGGYGGDRGGYGGKMGGRNDYRNDQRNRPY,not soluble
14,MASFRKNHVIIDSSDSSEDEDRKERHSSSSEVDETASMRSTDSSEPPRTIIDASLNSMASTVYTSTPNSKQSISRTGSSTTYGSSKCSTDDHYRSRSFIDNSFEKPVTPITKKLQESDEPRAKQQLRERLLRKSIKQQSDQDLTGGSSRSGWGTGENSSLESSDLINSHFSPIAKTFRHASDLDDSMNTSPPPNRSTLPSVETSSGNSPQTPYPGSPEASPQPSPPKNTASELQKLSIKELEANKDKKLKLLKFSSNLPDNGARVKLQVDEITEEIERRIINGVTDTMVVDKTTAIPPPPQPKNLIAPIPQDFAAMLDKNGRKVMSGRMTEQKILKVNKISDRLMQQLADATHTIPAETDLTDTPDGLLVELMPHQKAGLRWLVWREGQPHSGGILADDMGLGKTLSMLSLIVHQKAARRARKESGDNAADKEKRRVAKEEGLYPSNGTLIIAPASLIHQWEAEINRRLESDLLSVFMFHGTKKQRQIEPKELARYDVVITTYTLAANELMEKKAAGSKKEEDSDDESENEENPRRPAGKNDSPLARVAWSRVILDEAHAIKNRLSQCSKAVCRLSSFSRWCLSGTPIHNNLWDLYSLVRFLRIPLFGDRKFWAESIMPMKTGMADRVNLLTKNLMLRRTKDQQCALTNKKIVNLKEKKIEIHELEMVGDEANGYAIMMEAAQKLVKQIVTNTDDIQKYGQIRRRRQRGNDDEFANPYNVGPRNLAGNSNFQNMSCILLLLMRLRQACVHFHITKSGMDLDAFKINGGDDEDADMKELENLMEKTMADLTIADSDNDEEGVDTNKEEPKQPPTRIFEPDFISCKMAKTLEVVREILEKKEKVVIVSQWTSVLNLVEKHIQAGGHNYTSITGQVLVKDRQERVDSFNQEKGGAQVMLLSLTAGGVGLNLIGGNHLIMVDLHWNPALEQQACDRIYRMGQKKEVFIHRLNISKFCRLIVKGTIEQRVMDLQEKKLALAASVLEGTATRKLNKLTTADIRMLFGLDGSSNAN,not soluble
